At least one compound was matched to its structure with a doubt left.
Experiment: Solubility in citrate buffer containing 30% cyclodextrin
Assay type: physicochemical
Conditions: 100 mg/ml
Protocol: Solubility of sodium a-methyl hydrocinnamate and buffer capacity of pH 5 citrate buffers prepared at four different buffer concentrations were evaluated as presented in Table 3.

CC(Cc1ccccc1)C(=O)[O-].[Na+] (stereo not drawn) [sodium α-methyl hydrocinnamate]
Turbidicity order by citrate buffer concentration (30% Captisol): Turbidicity: 1M > 0.5M > 0.25M
Turbidicity order by citrate buffer concentration (30% Trappsol): Turbidicity: 1M > 0.5M
